Data reported in article PMC11497446.
Results are given in words; binding and its absence hold for the method and conditions named. In cells and extracts the contact can be indirect. Some entries that bind do so weakly or less than the wild type.

Amino acid sequences for entries named in this document (tags omitted). Residues count along the entry.
UniProt P12830, residues 731-882: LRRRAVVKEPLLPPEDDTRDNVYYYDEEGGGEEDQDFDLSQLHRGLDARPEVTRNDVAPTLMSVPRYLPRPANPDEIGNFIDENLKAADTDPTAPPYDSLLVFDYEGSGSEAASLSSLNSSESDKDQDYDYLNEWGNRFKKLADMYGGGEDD
UniProt P51784: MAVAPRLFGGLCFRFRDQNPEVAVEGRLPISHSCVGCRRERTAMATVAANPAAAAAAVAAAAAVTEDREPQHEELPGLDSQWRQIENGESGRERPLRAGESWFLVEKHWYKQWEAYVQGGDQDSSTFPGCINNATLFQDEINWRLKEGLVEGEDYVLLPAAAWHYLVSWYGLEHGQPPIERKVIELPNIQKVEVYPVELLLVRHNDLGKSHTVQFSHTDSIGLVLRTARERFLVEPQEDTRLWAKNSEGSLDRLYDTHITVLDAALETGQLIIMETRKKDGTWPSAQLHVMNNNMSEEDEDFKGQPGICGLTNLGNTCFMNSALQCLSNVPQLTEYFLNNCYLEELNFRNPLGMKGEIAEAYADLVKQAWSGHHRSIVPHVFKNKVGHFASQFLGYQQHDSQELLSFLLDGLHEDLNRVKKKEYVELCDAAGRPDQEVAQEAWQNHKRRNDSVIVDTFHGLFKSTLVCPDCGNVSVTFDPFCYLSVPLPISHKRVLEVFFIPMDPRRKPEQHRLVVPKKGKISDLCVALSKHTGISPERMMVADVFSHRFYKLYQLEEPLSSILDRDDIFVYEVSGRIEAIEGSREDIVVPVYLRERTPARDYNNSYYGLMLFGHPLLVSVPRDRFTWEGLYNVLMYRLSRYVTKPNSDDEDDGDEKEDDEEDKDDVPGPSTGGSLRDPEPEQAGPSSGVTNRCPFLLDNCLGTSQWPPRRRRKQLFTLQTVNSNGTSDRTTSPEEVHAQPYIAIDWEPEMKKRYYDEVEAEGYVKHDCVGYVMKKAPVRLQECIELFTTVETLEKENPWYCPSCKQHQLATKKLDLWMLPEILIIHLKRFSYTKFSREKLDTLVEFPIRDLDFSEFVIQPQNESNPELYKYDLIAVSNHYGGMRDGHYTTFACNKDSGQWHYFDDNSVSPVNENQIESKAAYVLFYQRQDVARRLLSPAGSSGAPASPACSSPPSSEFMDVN

Biological target: Flag-E-cadherin-C (731-882aa) (human) (UniProt P12830)
Experiment: co-IP; co-immunoprecipitation of USP11 and E-cadherin-C (731-882aa); cells and antibody not given

USP11 in the co-immunoprecipitation with E-cadherin-C (from UniProt P51784 1-963) (enzyme)
binding: binds
